In this assay the target is SOX9 (sex determining region Y [SRY]-related HMG-box 9) (human (endogenous in 526mel and 624mel)) (UniProt P48436). The assay can be described thus: co-IP; 5x10^6 526mel or 624mel cells cross-linked with DSP, lysed in RIPA buffer; anti-SOX9 or anti-vinculin antibody on Surebeads magnetic beads, lysate overnight at 4°C, washed with PBS-T; immunoblot for Sp1.

Chains of the proteins cited; added tags and fusions are not shown.
UniProt P48436: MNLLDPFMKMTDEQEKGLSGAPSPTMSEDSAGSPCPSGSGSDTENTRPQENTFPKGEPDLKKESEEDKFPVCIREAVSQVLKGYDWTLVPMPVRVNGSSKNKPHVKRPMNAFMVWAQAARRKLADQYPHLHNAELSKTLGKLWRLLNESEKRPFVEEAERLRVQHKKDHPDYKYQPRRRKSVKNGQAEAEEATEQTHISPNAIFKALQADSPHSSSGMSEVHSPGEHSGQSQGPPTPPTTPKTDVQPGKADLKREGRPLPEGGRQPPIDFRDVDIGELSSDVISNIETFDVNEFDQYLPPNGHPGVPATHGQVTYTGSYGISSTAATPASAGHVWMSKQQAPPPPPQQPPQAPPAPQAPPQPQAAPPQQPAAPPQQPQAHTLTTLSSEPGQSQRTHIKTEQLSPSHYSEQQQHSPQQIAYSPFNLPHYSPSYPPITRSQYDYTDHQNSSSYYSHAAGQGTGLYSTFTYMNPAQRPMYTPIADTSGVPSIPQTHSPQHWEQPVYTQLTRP
UniProt P08047: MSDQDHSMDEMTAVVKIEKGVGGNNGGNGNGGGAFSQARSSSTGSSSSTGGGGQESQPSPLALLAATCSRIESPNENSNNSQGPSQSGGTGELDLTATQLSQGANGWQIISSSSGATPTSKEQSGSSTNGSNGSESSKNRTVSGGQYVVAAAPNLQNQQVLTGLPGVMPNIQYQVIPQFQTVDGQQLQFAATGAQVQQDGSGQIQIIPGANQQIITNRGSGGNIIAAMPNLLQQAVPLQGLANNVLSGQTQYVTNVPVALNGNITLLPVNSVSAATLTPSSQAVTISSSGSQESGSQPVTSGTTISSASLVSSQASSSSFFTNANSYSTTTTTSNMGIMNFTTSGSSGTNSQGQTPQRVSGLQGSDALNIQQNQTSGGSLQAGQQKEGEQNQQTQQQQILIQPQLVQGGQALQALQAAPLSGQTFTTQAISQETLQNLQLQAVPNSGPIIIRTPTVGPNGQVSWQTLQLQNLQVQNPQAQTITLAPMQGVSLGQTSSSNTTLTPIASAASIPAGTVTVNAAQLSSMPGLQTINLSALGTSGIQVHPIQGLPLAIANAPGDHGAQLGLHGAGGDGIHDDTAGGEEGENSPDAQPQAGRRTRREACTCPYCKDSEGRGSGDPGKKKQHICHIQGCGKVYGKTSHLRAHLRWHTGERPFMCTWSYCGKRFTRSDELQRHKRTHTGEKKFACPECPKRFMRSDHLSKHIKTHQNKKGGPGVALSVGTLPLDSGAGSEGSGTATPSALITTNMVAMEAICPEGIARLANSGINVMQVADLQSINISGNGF

No constants are given. Whether binding was seen depends on the method and setting. In cells and extracts the contact can be indirect. Some results given as binding are weak or reduced against the parent protein; the word gives no strength.

With Sp1 (from UniProt P08047 1-785), the binding result is “binds”.

For the origin of these results see article PMC5058672.
